Earlier results as cited in patent publication US20210284969A1, “METHODS AND SYSTEMS FOR TRANSPORTATION AND CULTURE OF BUOYANT TISSUE” (eXo Cell, LLC, priority 2020, published 2021).
At least one structure is not confirmed: it was looked up by name or label, or the drawing left a doubt.

System: beta-3 adrenoreceptors
Settings: ratio 1&1 : 1&2 : 1&3 adrenoreceptors

For O=S(=O)(Nc1ccc(CCNC[C@H](O)c2cccnc2)cc1)c1ccc(-c2nc(-c3ccc(C(F)(F)F)cc3)cs2)cc1 [L-796568], which “specificity 1&1, 1&2, 1&3” value is on record?
The value was 1:230:660.
